Measured values published in publication doi:10.1101/116491 (bioRxiv, 2017).
Results are given in words; binding and its absence hold for the method and conditions named. Sequences can lack the tags named with a protein.

Biological target: T1, Orange Carotenoid Protein, wildtype, His6-tagged, Synechocystis (OCP^WT) (Synechocystis), P74102
T1 chain: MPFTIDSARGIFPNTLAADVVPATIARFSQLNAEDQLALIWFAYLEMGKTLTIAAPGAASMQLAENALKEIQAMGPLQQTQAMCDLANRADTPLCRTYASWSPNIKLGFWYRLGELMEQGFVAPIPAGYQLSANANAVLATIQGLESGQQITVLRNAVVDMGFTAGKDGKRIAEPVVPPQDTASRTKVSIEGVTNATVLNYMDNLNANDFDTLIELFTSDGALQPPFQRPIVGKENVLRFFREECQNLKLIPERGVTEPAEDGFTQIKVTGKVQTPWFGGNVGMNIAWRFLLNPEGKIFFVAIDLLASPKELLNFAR
Assay: cross-linking
Conditions: remark: other sources report otherwise

- binding: no binding (tested: 8.1 μM)
B1: Orange Carotenoid Protein, wildtype, His6-tagged, Synechocystis (OCP^WT), P74102 1-317 (protein)
chain: T1 chain
